{
  "source": "PubChem BioAssay AID2685",
  "about": "(National Center for Advancing Translational Sciences (NCATS), 2010)",
  "experiment": "qHTS Assay for Lipid Storage Modulators in Drosophila S3 Cells;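 as to cell number change: cells counted by Cell Tracker Red CMTPX staining in the red channel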",
  "conditions": "BODIPY lipid droplet fluorescence, 18-24 h; for cell number change: measured here: cell count max response, cells fed with added oleic acid",
  "procedure,_shortened": "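Laser-scanning cytometry quantifies lipid droplet accumulation (500–530 nm total intensity; droplet/cell object ratio) in oleic acid-fed (400 uM added) Drosophila S3 cells treated with a concentration series. 20 uM Triacsin C defined 100% inhibition.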",
  "key": {"[1]": {"conditions": "measured here: cell number channel AC50, cells fed with added oleic acid"}, "[2]": {"conditions": "measured here: lipid fluorescence (Fed channel) AC50, cells fed with added oleic acid"}},
  "note": "This is one part of the list. The main result of the screen is listed elsewhere. These columns were measured beside it and carry no call. Most of these compounds were active or inconclusive in the main read-out, so they are no random draw. Potencies come from curve fits of mixed quality, noted in brackets.",
  "data": [
    {"smiles": "CC1=NN(c2ccccc2)C(=O)C1N=Nc1cccc(O)c1", "note": "(stereo not given)", "values": [
      {"measurement": "cell number change", "value": -54.9, "unit": "%"},
      {"measurement": "AC50", "setting": "[1]", "value": "16.4 µM [falling, partial curve]"},
      {"measurement": "AC50", "setting": "[2]", "value": "6.51 µM [falling, single point]"}
    ]},
    {"smiles": "O=C(Nc1ccccc1Cl)NC1CCCCCCC1", "values": [
      {"measurement": "cell number change", "value": 3.47, "unit": "%"},
      {"measurement": "AC50", "setting": "[2]", "value": "0.092 µM [falling, full curve, poor fit]"}
    ]},
    {"smiles": "COCc1cc(C)n(CC(=O)NCc2ccccc2)c(=O)c1C#N", "values": [
      {"measurement": "cell number change", "value": 112, "unit": "%"}
    ]},
    {"smiles": "Cc1nnc(NC(=O)c2cc3ccccc3o2)s1", "values": [
      {"measurement": "cell number change", "value": 14.1, "unit": "%"},
      {"measurement": "AC50", "setting": "[2]", "value": "5.17 µM [rising, single point]"}
    ]},
    {"smiles": "CCOC(=O)c1cc2occc2n1CC(=O)N1CCN(C(=O)c2ccco2)CC1", "values": [
      {"measurement": "cell number change", "value": 47.9, "unit": "%"},
      {"measurement": "AC50", "setting": "[1]", "value": "7.31 µM [rising, partial curve]"},
      {"measurement": "AC50", "setting": "[2]", "value": "10.3 µM [rising, partial curve]"}
    ]},
    {"smiles": "Cc1cc(C(=O)NC(C)c2ccncc2)cs1", "note": "(stereo not given)", "values": [
      {"measurement": "cell number change", "value": 40.2, "unit": "%"},
      {"measurement": "AC50", "setting": "[1]", "value": "0.517 µM [rising, partial curve]"},
      {"measurement": "AC50", "setting": "[2]", "value": "10.3 µM [rising, partial curve]"}
    ]},
    {"smiles": "Cc1cc(C)cc(NS(=O)(=O)c2ccc3[nH]c(=O)ccc3c2)c1", "values": [
      {"measurement": "cell number change", "value": 19.1, "unit": "%"}
    ]},
    {"smiles": "CCn1c(SCc2nnc(-c3ccccc3)o2)nc2c1c(=O)n(C)c(=O)n2C", "values": [
      {"measurement": "cell number change", "value": 14.7, "unit": "%"},
      {"measurement": "AC50", "setting": "[2]", "value": "4.61 µM [rising, partial curve]"}
    ]},
    {"smiles": "Cc1cccc(N(CC(=O)NC2CC2)S(=O)(=O)c2ccc(Cl)cc2)c1", "values": [
      {"measurement": "cell number change", "value": 7.18, "unit": "%"},
      {"measurement": "AC50", "setting": "[2]", "value": "32.6 µM [rising, single point]"}
    ]},
    {"smiles": "O=c1ccc2c(-c3ccccc3S(=O)(=O)O)c3ccc(O)c(O)c3oc-2c1O", "values": [
      {"measurement": "cell number change", "value": -82.4, "unit": "%"},
      {"measurement": "AC50", "setting": "[1]", "value": "18.4 µM [falling, partial curve]"}
    ]},
    {"smiles": "CC(C)CC1NC2(C(=O)N(C)c3ccccc32)C2C(=O)N(C(C)C)C(=O)C12", "note": "(stereo not given)", "values": [
      {"measurement": "AC50", "setting": "[2]", "value": "6.51 µM [falling, single point]"}
    ]},
    {"smiles": "Cc1cccc(Oc2ccc(N)cc2)c1", "values": [
      {"measurement": "cell number change", "value": 23.8, "unit": "%"},
      {"measurement": "AC50", "setting": "[1]", "value": "0.58 µM [rising, full curve, poor fit]"}
    ]},
    {"smiles": "N#C/C(=C\\c1sc(N2CCOCC2)nc1-c1ccccc1)C(=O)Nc1cccc2ccccc12", "values": [
      {"measurement": "cell number change", "value": 10.2, "unit": "%"},
      {"measurement": "AC50", "setting": "[2]", "value": "25.9 µM [rising, partial curve]"}
    ]},
    {"smiles": "COc1ccccc1CNC(=O)c1cnccn1", "values": [
      {"measurement": "cell number change", "value": -26.5, "unit": "%"},
      {"measurement": "AC50", "setting": "[2]", "value": "20.6 µM [falling, partial curve]"}
    ]},
    {"smiles": "CCCn1nc(C(=O)OCC(=O)Nc2cccc(OC)c2)c2ccccc2c1=O", "values": [
      {"measurement": "cell number change", "value": 11.7, "unit": "%"},
      {"measurement": "AC50", "setting": "[2]", "value": "12.6 µM [rising, partial curve, poor fit]"}
    ]},
    {"smiles": "COc1ccc(OCC(O)CN(CCO)CC(O)Cn2ccc3ccccc32)cc1", "note": "(stereo not given)", "values": [
      {"measurement": "cell number change", "value": -2.9, "unit": "%"},
      {"measurement": "AC50", "setting": "[2]", "value": "0.103 µM [falling, full curve, poor fit]"}
    ]},
    {"smiles": "COc1cc(C(=O)OCc2cccc(OC)c2OC)ccc1OCC(=O)N1CCOCC1", "values": [
      {"measurement": "cell number change", "value": -1.04, "unit": "%"},
      {"measurement": "AC50", "setting": "[2]", "value": "4.11 µM [rising, single point]"}
    ]},
    {"smiles": "CCOC(=O)N1CCN(CCC(=O)c2ccc(Br)cc2)CC1", "values": [
      {"measurement": "cell number change", "value": -39.5, "unit": "%"},
      {"measurement": "AC50", "setting": "[1]", "value": "23.1 µM [falling, single point]"},
      {"measurement": "AC50", "setting": "[2]", "value": "29.1 µM [falling, single point]"}
    ]},
    {"smiles": "COc1ccc(-c2nc(=S)c3c([nH]2)Oc2ccc(C)cc2C3)cc1O", "values": [
      {"measurement": "cell number change", "value": -12.9, "unit": "%"},
      {"measurement": "AC50", "setting": "[2]", "value": "29.1 µM [falling, single point]"}
    ]},
    {"smiles": "c1ccc(C[C@H]2CNCCN2CC2CCCCC2)cc1", "values": [
      {"measurement": "AC50", "setting": "[2]", "value": "0.326 µM [falling, single point]"}
    ]},
    {"smiles": "O=C1CCN(Cc2ccccc2)CCN1[C@H](COc1ccccc1)Cc1ccccc1", "values": [
      {"measurement": "cell number change", "value": 2.1, "unit": "%"}
    ]},
    {"smiles": "COc1ccc(C(=O)NCCCCCC(=O)N/N=C/c2ccco2)cc1OC", "values": [
      {"measurement": "cell number change", "value": 13.9, "unit": "%"},
      {"measurement": "AC50", "setting": "[2]", "value": "9.2 µM [rising, single point]"}
    ]},
    {"smiles": "CN(C(=O)COC(=O)c1ccc2c(=O)n3c(nc2c1)CCC3)C1CCS(=O)(=O)C1", "note": "(stereo not given)", "values": [
      {"measurement": "cell number change", "value": 7.17, "unit": "%"}
    ]},
    {"smiles": "Cc1cc(C)n2nc(C(=O)N3CCCC(Nc4ccc(F)c(F)c4)C3)cc2n1", "note": "(stereo not given)", "values": [
      {"measurement": "cell number change", "value": -11.4, "unit": "%"},
      {"measurement": "AC50", "setting": "[2]", "value": "32.6 µM [falling, single point]"}
    ]},
    {"smiles": "COc1ccccc1-c1coc2cc(O)cc(O)c2c1=O", "values": [
      {"measurement": "cell number change", "value": 22.9, "unit": "%"}
    ]},
    {"smiles": "CCOC(=O)c1c2ccc(OCC(=O)N/N=C/c3ccc(C)cc3)cc2n2ccccc12", "values": [
      {"measurement": "cell number change", "value": 118, "unit": "%"}
    ]},
    {"smiles": "CC(C)[C@H](NC(N)=O)C(=O)Nc1ccc(F)c(Cl)c1", "values": [
      {"measurement": "cell number change", "value": 26.9, "unit": "%"},
      {"measurement": "AC50", "setting": "[1]", "value": "1.84 µM [falling, partial curve]"},
      {"measurement": "AC50", "setting": "[2]", "value": "29.1 µM [rising, single point]"}
    ]},
    {"smiles": "O=C(O)COc1ccc(/C=C/C(=O)c2ccc(C3CCCCC3)cc2)cc1", "values": [
      {"measurement": "cell number change", "value": -5.26, "unit": "%"}
    ]},
    {"smiles": "CCOC(=O)C1CCN(S(=O)(=O)c2ccc(CN3C(=O)c4cccnc4C3=O)cc2)CC1", "values": [
      {"measurement": "cell number change", "value": 4.86, "unit": "%"},
      {"measurement": "AC50", "setting": "[1]", "value": "0.731 µM [rising, single point]"}
    ]},
    {"smiles": "O=C(c1cc(-c2cccs2)on1)N1CCN(c2ccccc2)CC1", "values": [
      {"measurement": "cell number change", "value": 1.48, "unit": "%"},
      {"measurement": "AC50", "setting": "[2]", "value": "0.82 µM [falling, full curve, poor fit]"}
    ]},
    {"smiles": "Cc1ccc([C@@H]2[C@@H]3C(=O)N(C)C(=O)[C@@H]3[C@]3(C)C(=O)N(Cc4ccccc4)CC(=O)N23)o1", "values": [
      {"measurement": "cell number change", "value": 3.29, "unit": "%"},
      {"measurement": "AC50", "setting": "[2]", "value": "29.1 µM [rising, single point]"}
    ]},
    {"smiles": "Nc1ncnc2c1ncn2[C@@H]1O[C@H](COP(=O)(O)O)[C@@H](O)[C@H]1O", "values": [
      {"measurement": "cell number change", "value": -21, "unit": "%"},
      {"measurement": "AC50", "setting": "[2]", "value": "0.82 µM [falling, full curve, poor fit]"}
    ]}
  ]
}
